Patent US9993529B2, “Stable formulations of a hyaluronan-degrading enzyme” (Halozyme, Inc., priority 2011, dated 2018)
Entries after “also recorded” stand apart in the source; their conditions may differ.

Tested on: Aspergillus niger, Pseudomonas aeruginosa, E. coli, Staphylococcus aureus and Candida albicans
Assay: Antimicrobial effectiveness test, USP/EPA/EPB criteria
Conditions: Example 19

Compound: [Cl-].[Na+] [NaCl]
- Effect on antimicrobial effectiveness (component concentration (50-100 mM)): Negative; also recorded: Neutral
- Effect on antimicrobial effectiveness (component concentration (80-100 mM)): Neutral
